The list shows a part of the results. The main result of the screen is listed elsewhere. These columns were measured beside it and carry no call. Compounds called inactive in the main read-out are mostly missing here. The note in brackets gives the kind of curve behind each potency; many fits are weak.
Test: qHTS Assay for Lipid Storage Modulators in Drosophila S3 Cells;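 as to cell number change: cells counted by Cell Tracker Red CMTPX staining in the red channel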
Details: BODIPY lipid droplet fluorescence, 18-24 h; for cell number change: measured here: cell count max response, cells fed with added oleic acid
Outline: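 Drosophila S3 cells loaded with oleic acid (400 uM, as added) and compounds at several concentrations; lipid droplets imaged by 488-nm laser-scanning cytometry, 500–530 nm intensity and object ratio to cell channel. Percent activity normalized to 20 uM Triacsin C.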

[1] = measured here: cell number channel AC50, cells fed with added oleic acid
[2] = measured here: lipid fluorescence (Fed channel) AC50, cells fed with added oleic acid

Structure (SMILES) | cell number change [%] | AC50 [1] | AC50 [2]
CCOc1cccc(/C=N/N=C/c2cccc(OCC)c2O)c1O | 13.9 | – | –
CC(NC(=O)c1ccc(NS(C)(=O)=O)cc1)c1ccccc1 (stereo not given) | -15.4 | 6.51 µM [falling, single point] | –
CC(=O)NS(=O)(=O)c1ccc(NC(=O)CCc2ccccc2)cc1 | 61 | 29.1 µM [rising, single point] | 20.6 µM [rising, partial curve]
O=C1OC(=O)c2cc([N+](=O)[O-])ccc21 | -3.84 | – | 0.00517 µM [rising, full curve, poor fit]
CC(C)c1ccc(C2/C(=C(\O)c3ccc4c(c3)OCCO4)C(=O)C(=O)N2CCN2CCOCC2)cc1 (stereo not given) | -15.9 | – | 0.146 µM [rising, partial curve, poor fit]
CCc1nnc(NC(=O)Cn2nnc(-c3ccccc3F)n2)s1 | -1.7 | – | 0.13 µM [falling, full curve, poor fit]
CCn1ccc(C(=O)Nc2cccc(Cl)c2)n1 | 19.8 | – | 1.46 µM [rising, partial curve]
CC(Oc1ccc2ccc(=O)oc2c1)C(=O)NCC1CCC(C(=O)O)CC1 (stereo not given) | 20.4 | – | 8.2 µM [falling, partial curve]
O=C(COC(=O)c1ccc([N+](=O)[O-])s1)Nc1cccc(S(=O)(=O)NC2=NCCCCC2)c1 | -7.26 | – | 0.461 µM [falling, single point]
COc1ccc(C(=O)COC(=O)c2cc(S(=O)(=O)N3CCCCC3)ccc2N2CCOCC2)c(OC)c1 | 41.1 | 18.4 µM [rising, single point] | 18.4 µM [rising, partial curve]
CCOC(=O)c1ccc(S(=O)(=O)NC2CCC(C)CC2)cc1 (stereo not given) | -10.4 | 6.51 µM [falling, single point] | 6.51 µM [falling, single point]
CCOC(=O)CNC(=O)Nc1ccccc1C(=O)OC | -6.53 | – | 1.16 µM [falling, full curve]
O=C1NC(Cc2ccccc2)c2nc3cc(F)ccc3c(=O)n2-c2cc(Cl)ccc21 (stereo not given) | 11.8 | – | 20.6 µM [rising, single point]
COc1ccc(NC(=O)NCc2ccc3c(c2)OCO3)c(OC)c1 | 3.24 | – | –
CCOC1CC(C)(C)NC(=S)N1 (stereo not given) | 32.1 | 0.291 µM [rising, partial curve, poor fit] | –
CCc1ccc(NC(=O)CSc2nnc(C3CC3)n2CC2CCCO2)cc1 (stereo not given) | 14.2 | – | 1.84 µM [rising, partial curve]
CCC(C)NC(=O)C1CCN(S(=O)(=O)c2cccs2)CC1 (stereo not given) | 6.96 | 0.082 µM [falling, partial curve, poor fit] | –
CCc1nn(CC(=O)N2CCN(CC)CC2)c(=O)c2cccn12 | 9.22 | – | –
CC1CCCCC1NC(=O)COC(=O)c1ccc(S(=O)(=O)NCc2ccco2)cc1 (stereo not given) | -171 | 29.1 µM [falling, partial curve, poor fit] | 29.1 µM [falling, single point]
Cc1cccc(COC(=O)CCCNC(=O)c2ccc(Cl)cc2)c1 | -4.55 | – | –

Compounds shown so far that have two or more sulfur atoms:
Structure (SMILES) | cell number change [%] | AC50 [1] | AC50 [2]
O=C(COC(=O)c1ccc([N+](=O)[O-])s1)Nc1cccc(S(=O)(=O)NC2=NCCCCC2)c1 | -7.26 | – | 0.461 µM [falling, single point]
CCC(C)NC(=O)C1CCN(S(=O)(=O)c2cccs2)CC1 (stereo not given) | 6.96 | 0.082 µM [falling, partial curve, poor fit] | –

(next part)

Structure (SMILES) | cell number change [%] | AC50 [1] | AC50 [2]
COc1ccc(Cl)cc1-c1nc(SCC(=O)NC(C)C)n[nH]1 | 4.03 | 0.731 µM [falling, single point] | –
Cc1ccc2sc(N(CCCN(C)C)C(=O)c3ccc(S(=O)(=O)N4CCCCCC4)cc3)nc2c1C | – | 0.731 µM [falling, full curve] | 0.651 µM [falling, full curve]
COCC1CCCCN1C(=O)c1ccc(OC)c(OC2CCN(C(C)C)CC2)c1 (stereo not given) | 97.4 | 20.6 µM [rising, partial curve] | –
CCn1c(SCC(N)=O)nnc1-c1ccc2[nH]c(C)c(C)c2c1 | 12 | – | 5.17 µM [rising, partial curve]
COC(=O)c1nnn(-c2nonc2N)c1CN1CCc2ccccc21 | -11.3 | – | –
CCc1cccc(NS(=O)(=O)c2csc(C(N)=O)c2)c1 | -17.2 | – | –
CCOC(=O)N1CCN(CC(O)COCCC23CC4CC(CC(C4)C2)C3)CC1 (stereo not given) | -0.817 | – | 0.82 µM [falling, single point]
COc1ccc(Cl)cc1NC(=O)CN1CCN(S(=O)(=O)c2ccc(F)cc2)CC1 | 64.5 | 18.4 µM [rising, single point] | –
COc1ccc(/C=C/C(=O)NC(=S)NNC(=O)Cc2cccs2)cc1OC | – | 0.517 µM [rising, full curve, poor fit] | 7.31 µM [rising, partial curve, poor fit]
CCC(C)Sc1ccc(-c2nc3cnccn3c2NC2CCCCC2)cc1 (stereo not given) | -13.9 | 3.26 µM [falling, single point] | –
Cc1nnc(SCC(=O)Nc2ccc(-c3nc4ccccc4s3)cc2)s1 | -4.03 | – | –
Cc1ccc(S(=O)(=O)N2CCN(C(=O)CN3CCOCC3)C2C(C)C)cc1 (stereo not given) | 10.2 | – | 2.31 µM [rising, full curve, poor fit]
Cc1cccc(N=c2c([N+](=O)[O-])nn(-c3ccc(Cl)cc3)n2O)c1 | -45.6 | 16.4 µM [falling, partial curve, poor fit] | 32.6 µM [falling, partial curve, poor fit]
Cc1ccc(S(=O)(=O)c2c(N)n(Cc3ccco3)c3nc4ccccc4nc23)cc1 | 3.75 | – | –
CC(Sc1nnc2ccccn12)C(=O)Nc1ccc2c(c1)OCCO2 (stereo not given) | -14.2 | 0.0058 µM [falling, full curve, poor fit] | –
COC(=O)C1=C(O)CSC1=Nc1cccc(C(F)(F)F)c1 | 2.5 | – | 6.51 µM [falling, single point]
COc1cc(C)nc(N2CCC(C(=O)NC3CCCCC3)CC2)n1 | – | 6.51 µM [rising, single point] | 3.66 µM [rising, single point]
CCOc1cc(NC(=S)NCCCN2CCOCC2)c(OCC)cc1NC(=O)c1ccccc1C | -22.4 | – | 11.6 µM [falling, partial curve, poor fit]
Cc1ccc(NC(=O)CN(C)C(=O)c2ccc(NS(=O)(=O)c3ccc4[nH]c(=O)[nH]c4c3)cc2)cc1 | 8.13 | – | 7.31 µM [rising, partial curve, poor fit]
Cc1ccc(C)c(S(=O)(=O)N2CCC(c3nc4c(nnn4Cc4ccc5c(c4)OCCO5)c(=O)[nH]3)CC2)c1 | -19 | – | 16.4 µM [falling, partial curve]

Structure (SMILES) | cell number change [%] | AC50 [1] | AC50 [2]
CCCCN(C(=O)NC(=O)Nc1ccccc1OC)S(C)(=O)=O | -4.67 | – | 0.00461 µM [falling, full curve, poor fit]
O=C1CCN(S(=O)(=O)c2cccs2)c2ccc(C(F)(F)F)cc2N1 | -5.1 | – | 1.84 µM [falling, partial curve]
CCC(=O)Nc1ccc(S(=O)(=O)NCc2ccco2)cc1 | -0.666 | – | –
O=C(Nc1ccccc1)Nc1nnc(Cc2ccc([N+](=O)[O-])cc2)s1 | -7.28 | 0.00411 µM [rising, full curve, poor fit] | 11.6 µM [rising, partial curve, poor fit]
COCCN1C(=O)CC(NNC(=O)c2ccc(S(=O)(=O)N3CCCC3)cc2)C1=O (stereo not given) | -34.5 | 20.6 µM [falling, single point] | –
O=C(CC1(CC(=O)N2CCOCC2)CCCC1)Nc1ccccc1 | -17.5 | – | 29.1 µM [falling, single point]
Cc1cc(-n2c(C)cc(C(=O)COc3cc(F)ccc3[N+](=O)[O-])c2C)no1 | – | – | 5.17 µM [falling, partial curve]
O=C(NC1CCCCCC1)c1ccc([N+](=O)[O-])s1 | 1.28 | – | 29.1 µM [rising, single point]
CC1CCN(C(=O)COC(=O)c2cc3ccccc3cc2O)CC1 | -0.253 | – | 16.4 µM [falling, single point]
COCC(C)N=C1NN=C(c2ccc(NC(C)=O)cc2)CS1 (stereo not given) | 47.4 | 11.6 µM [rising, partial curve] | 3.66 µM [rising, single point]
COC(=O)c1ccccc1NC(=O)Nc1ccc(Br)cn1 | -5.1 | 0.0731 µM [rising, full curve, poor fit] | –
COc1ccccc1C1C(C(N)=O)=C(C)Nc2nc(CCCO)nn21 (stereo not given) | 23.3 | – | 1.64 µM [rising, full curve, poor fit]
Cc1cc(C)c2nc(-c3ccccn3)cc(C(=O)Nc3cc(C)on3)c2c1 | -54.8 | 16.4 µM [falling, partial curve, poor fit] | –
COc1ccc(S(=O)(=O)N(CC(=O)NCc2ccco2)c2ccccc2)cc1OC | 53.6 | 16.4 µM [rising, partial curve] | –
CCOC(=O)C(Cc1ccc(NC(=O)/C(=C\c2ccccc2)NC(=O)c2ccccc2)cc1)N1C(=O)c2ccccc2C1=O (stereo not given) | 13.6 | – | –
Cc1ccc2nc(C(=O)O)c(C(=O)O)nc2c1 | -30.6 | – | 18.4 µM [falling, single point]
CCOc1ccc2c(c1)C(C)=CC(C)(C)N2C(=O)Nc1ccccc1 | 83.9 | 18.4 µM [rising, partial curve] | 6.51 µM [falling, single point]
COc1ccc2oc(C(=O)Nc3ccc(S(=O)(=O)N(C)C4CCN(C)CC4)cc3)c(C)c2c1 | 16.4 | – | 5.8 µM [rising, partial curve]
CCOc1cc(/C=N/NC(=O)CNc2cccc(C)c2)ccc1OC(=O)c1ccccc1 | -4.75 | – | 1.84 µM [rising, partial curve, poor fit]

Whole records from above:
`CCn1ccc(C(=O)Nc2cccc(Cl)c2)n1` is entered as cell number change [%]: 19.8; AC50 [2]: 1.46 µM [rising, partial curve]
`COC(=O)c1ccccc1NC(=O)Nc1ccc(Br)cn1` is entered as cell number change [%]: -5.1; AC50 [1]: 0.0731 µM [rising, full curve, poor fit]
